Measured values published in PMC10163288.
The list shows a part of the results.

B1: il2ra_site1_2b5i_sap_10_mot_HHH_b1_00095_000000042_0001_1_14_H_._HHH_b2_06882_af2_0001_0000100002_0000001_0_0001_af2pred_dldesign_0_af2pred (protein)
chain: SSPLLEFARKLEEKIILAEEQENAELAQEALDEAEKRLKEHPNDKLIKYIAEKAKEVLKELLESS
B2: il2ra_site2_2erj_sap_19_mot_HHH_b1_08162_af2_000000254_0001_40_56_H_._HHH_b1_03799_0001_0000100002_0000001_0_0001 (protein)
chain: SSSSDRLHELYELANELTRLVAEGDEEKVEEVAQEVKKLAEELDSPNAEEIVENLERLLDSSSSS
B3: il2ra_site2_2erj_normal_mot_HHH_b1_05749_af2_000000086_0001_23_39_H_._HHH_b2_04008_0001_0000400022_0000001_0 (protein)
chain: SSSSDKEESERALRIVYEIASKFGLDHELAHHLAEIAYELLEQGVSEEELREILEEFAEEYSSSS
B4: il2ra_site2_3nfp_sap_19_mot_HHH_b1_06589_000000230_0001_37_50_H_._HHH_b2_03432_0001_0000100006_0000001_0_0001 (protein)
chain: SSSSSSKAEEYVEAALELAKRTPDEEIRERHLELARLAAESQNDPELERLVEEVKEELGSSSSSS
B5: il2ra_site2_2erj_sap_18_mot_HHH_b1_04373_af2_000000118_0001_18_33_H_._HHH_b1_03962_0001_0000200008_0000001_1_0001 (protein)
chain: SSSSTEETREALEAAAEKDAKKDPEKARLYLELAERFAKRSGDEEALERIEELLEELREGSSSSS
B6: il2ra_site2_2erj_sap_20_mot_HHH_b1_06364_af2_000000268_0001_41_57_H_._HHH_b1_06576_0001_0000800021_0000001_0_0001_af2pred_0001_af2pred (protein)
chain: SSSSSEEEEVEKLLEEVKRLEKEGDEERAKKVLFEAALLALEINNEELEKEIERLAKELRSSSSS
B7: il2ra_site1_3nfp_sap_13_mot_HHH_b1_01159_af2_000000107_0001_1_20_H_._HHH_b2_04217_0001_0000600032_0000001_0_0001_af2pred_0001_af2pred (protein)
chain: SSSSDALREVLELIKEAREAFKNGNPEEAKKILEEALKIAEERNSPHLRRFLEATLRLIRSSSSS
B8: il2ra_site1_2b5i_normal_mot_HHH_b1_00095_000000044_0001_1_14_H_._HHH_eva_0532_0001_0000100001_0000001_0_af2pred_dldesign_0_af2pred (protein)
chain: SSSSSSAARRAIEEAIEEAEEAGDEEAVAELRELLAQLDAGKISPREALLRANALLKELESSSSS
B9: il2ra_site2_3nfp_normal_mot_HHH_b1_05627_af2_000000038_0001_43_56_H_._HHH_b1_04509_0001_0000700040_0000001_0 (protein)
chain: SSSSDKAERYLRVALLLLRRAAEHNNPELVRSHAEAAAALAEALRDPEVLREIEEILEELSSSSS
B10: il2ra_site2_3nfp_normal_mot_HHH_b2_07186_000000286_0001_42_55_H_._09c2afe89fb4cbada1505b3a46965288_0001_af2_0001_0000300039_0000001_0 (protein)
chain: GPEEKLEELEERAGDPRFAIYALLQELILELGNPREARELLREVIEKLFNVPPEEAERLLREASQ
B11: il2ra_site1_2b5i_normal_mot_HHH_b1_02271_000000068_0001_1_16_H_._HHH_b2_04832_af2_0001_0000100004_0000001_1_af2pred_dldesign_0_af2pred (protein)
chain: SSSSSEEEVRRLLEEARRLLEAGKRREALKLLEEAHKLAGALENEELIAEVEALFKEASKSSSSS
B12: il2ra_site1_1z92_normal_mot_01209686ea234b34325f918445e6eade_0001_af2_000000154_0001_18_33_H_._92259d4fafaaaac0c6a0b9836689a3e9_0001_0001_0000100010_0000001_0_a … (protein)
chain: SEALEKSIKQAEEMGIPPRQVVRAVLRNLERDLGDPEEAKELLEEVLEKLLGDPEEARELVERAE
B13: il2ra_site2_3nfp_sap_24_mot_HHH_b2_06039_000000024_0001_38_52_H_._ems_3hC_444_0001_af2_0001_0000300021_0000001_0_0001 (protein)
chain: SSSSSDDHEVYERVVELLKEANKIDDPEEREEVLREAEELAREARSEVLRRSVEDVAKANSSSSS
B14: il2ra_site2_2erj_normal_mot_HHH_b1_04373_af2_000000118_0001_18_33_H_._HHH_b2_05629_af2_0001_0000100008_0000001_0 (protein)
chain: SSSSSDVEEEVRRLLEEAEELREEGDLEEVYRLAVEALHLASKNQDQELIELVAKVAEELSSSSS
B15: il2ra_site2_3nfp_sap_29_mot_HHH_b2_03587_000000143_0001_18_35_H_._HHH_b2_00779_af2_0001_0000400020_0000001_0_0001 (protein)
chain: SSSSDERAKKIVENALRALEIALRRGDEELVELTEEYLRAAILLHNDEEAEELLEELRRKYSSSS
B16: il2ra_site2_3nfp_sap_19_mot_HHH_b1_06699_000000048_0001_23_40_H_._ems_3hC_59_0001_0000100006_0000001_0_0001_af2pred_0001_af2pred (protein)
chain: SSSSSDAAEEAEELAEEARHVEDPEERERILRKAAELAYRARDHEVFAEIHLVIEELERSSSSSS
B17: il2ra_site2_3nfp_sap_10_mot_HHH_b1_03612_af2_000000124_0001_42_57_H_._HHH_b2_00467_af2_0001_0000300010_0000001_1_0001 (protein)
chain: SSSSDEAEEYLRAALALLEELLEQNDPEFARKLAEILARAAESAEDEEVLEAAEEILEELSSSSS
B18: il2ra_site1_3nfp_normal_mot_HHH_b1_08723_000000044_0001_1_15_H_._HHH_b1_04612_af2_0001_0000400024_0000001_0_af2pred_0001_af2pred_1 (protein)
chain: SSSSSEREELEELLRQAQELFENGNPEEAQKVLEEAIELAEELNNEAMLKFLEAALRAAKSSSSS
B19: il2ra_site1_2b5i_sap_15_mot_1dae16775e8f4074d71d019417416b97_0001_af2_000000275_0001_1_12_H_._HHH_b2_05950_0001_0000100008_0000001_0_0001_af2pred_dldesign_0_af2 … (protein)
chain: SSSSDPRAELERIVDEIQEKYGLNEGARRILRELADRALEEGRSLEEIRKELEKIAEHLKSSSSS
B20: il2ra_site2_2erj_sap_32_mot_3c6e6c7a1689b1ff61bc13c65436e505_0001_1_af2_000000132_0001_16_32_H_._ems_3hM_3349_0001_0000100013_0000001_0_0001 (protein)
chain: SSSSDVEELLKEIEELLERGDLERAIHLLTEAVRLALERKDDELIRKVWELMRLIFELAESSSSS
B21: il2ra_site1_2b5i_normal_mot_HHH_b2_04353_af2_000000128_0001_1_17_H_._HHH_b1_07800_af2_0001_0000800040_0000001_0 (protein)
chain: SSSSDEAFEEVDELFRRASELFRNGNPEEARELIEEALEIAERNNDESARRDLERFLELLKSSSS
B22: il2ra_site2_3nfp_normal_mot_HHH_b2_05717_000000156_0001_42_56_H_._HHH_b1_01959_af2_0001_0000400021_0000001_0 (protein)
chain: SSSSNERAEEFVRLALWTLKAALEEGDEEVVRRIREFLRSAIHFHEDEEAEELLRELEEEYSSSS
B23: il2ra_site2_3nfp_normal_mot_HHH_b1_00086_000000221_0001_38_54_H_._HHH_b2_06926_0001_0000100006_0000001_0 (protein)
chain: SSSSDHREEYLRAALLLLELAVEEGNHELARRHTQAARALAESLHDEEILEELERLIEELESSSS
B24: il2ra_site2_3nfp_sap_13_mot_HHH_b2_00482_000000184_0001_1_21_H_._49678f45da0a336f03cbe5a93813d6e2_0001_1_af2_0001_0000300012_0000001_0_0001_af2pred_0001_1_af2pr … (protein)
chain: SSSSSSSDEEEVEELLEEAKRIDDEHEFFAVLSLAAELAFRSDNEELERLVKEVARRKRSSSSSS

These binders were tested against il2ra, P01589 (assay: yeast display titration).

Apparent Kd, inactive:
B1 no binding seen, B2 no binding seen, B3 no binding seen, B4 no binding seen, B5 no binding seen, B6 no binding seen, B7 no binding seen, B8 no binding seen, B9 no binding seen, B10 no binding seen, B11 no binding seen, B12 no binding seen, B13 no binding seen, B14 no binding seen, B15 no binding seen, B16 no binding seen, B17 no binding seen, B18 no binding seen, B19 no binding seen, B20 no binding seen, B21 no binding seen, B22 no binding seen, B23 no binding seen, B24 no binding seen
